Measurements reported in PubChem BioAssay AID504467 (National Center for Advancing Translational Sciences (NCATS), 2011).
Screen size: about 330,000 compounds; about 7,700 (2.3%) were called active. Inconclusive results, whose numbers are uncertain, are shown with a selection of clear calls. The call rests on the fitted dose curve; in most records, active means well fitted inhibition curve with a large enough effect; inconclusive means small, poorly fitted or top-dose-only effect, or effect the other way; inactive means flat fitted curve, though single readings scatter. Potencies of inconclusive entries are doubtful fits and often do not repeat.

assay: qHTS screen for small molecules that inhibit ELG1-dependent DNA repair in human embryonic kidney (HEK293T) cells expressing luciferase-tagged ELG1; conditions: HEK293T ELG1-luciferase reporter, luminescence, 16 h, DNA damage induced by 5-fluorouridine; activity change, negative = inhibition: at 46.1 µM (top of the series); further: nearly all actives have a fitted effect of over 55% in size
Procedure, shortened: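 5-Fluorouridine DNA damage + compound/DMSO, 2,000 cells/well, 16 h, 37 °C/5% CO2. ONE-Glo, 30 min RT, luminescence. Readout = decrease in reporter signal.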
On the % scale 0 is the no-effect control and ±100 the full control effect; potency means the concentration at half of the fitted maximal effect.

Structure (SMILES)	activity change, negative = inhibition	Potency
COC(=O)c1ccc(NC(=S)NC2CCCCC2C)cc1 (centres undefined)	inactive: -8.22%	
O=C(CN1CCN(S(=O)(=O)c2cc(C(F)(F)F)ccc2Cl)CC1)N1CCc2ccccc2C1		inconclusive: 29.1 µM [inhibitor, single point]
COc1ccccc1C(=O)N1CCC(C(=O)c2ccc(F)cc2)CC1	inactive: -26.4%	
CC1CCN(C(=O)CCc2nnc3ccc(NCc4ccco4)nn23)CC1		inconclusive: 32.6 µM [activator, partial curve, poor fit]
COC(=O)/C(=C\c1ccc(O)cc1)c1nc2ccccc2[nH]1		inconclusive: 18.3 µM [activator, partial curve]
CCCn1nc(C(=O)Nc2cccc(C(=O)OC)c2)c2ccccc2c1=O		active: 23.1 µM
CCC(NS(=O)(=O)c1ccc(C)cc1)C(=O)Nc1ccc(NC(C)=O)cc1 (centres undefined)	inactive: -1.91%	
COC(=O)c1ccc2c(=O)n(CCCCCC(=O)N3CCN(c4ccccc4)CC3)c(=O)[nH]c2c1		active: 7.31 µM
CC(C)CC(=O)C1=C(O)C(=O)N(Cc2ccccc2)C1c1ccccc1 (centres undefined)	inactive: -33.6%	
O=C(CCN1C(=O)c2ccccc2C1=O)NC(=S)Nc1ccccc1Cl		inconclusive: 23.1 µM [inhibitor, partial curve, poor fit]
C/C(=N\NC(=O)c1cc2ccccc2cc1O)c1ccc(C)o1		inconclusive: 20.6 µM [activator, partial curve]
CC(=O)Nc1ccc(S(=O)(=O)N(C)CC(=O)NCCOc2ccccc2)cc1		inconclusive: 29.1 µM [inhibitor, single point]
COc1cc(CNc2ccc(N3CCOCC3)cc2)ccc1OCC(=O)NC(C)(C)C		inconclusive: 25.9 µM [inhibitor, partial curve]
O=C(Nc1ccsn1)c1ccc(Cl)cc1Cl		inconclusive: 6.51 µM [activator, partial curve]
Cc1ccc(OCCCC(=O)Nc2nccs2)cc1		inconclusive: 29.1 µM [activator, partial curve, poor fit]
COCCN(C(=O)COC(=O)Cc1ccc(Cl)cc1Cl)c1c(N)n(Cc2ccccc2)c(=O)[nH]c1=O		inconclusive: 10.3 µM [activator, partial curve, poor fit]
O=C(NCCc1ccccc1)c1coc(=O)c(Br)c1		inconclusive: 18.3 µM [activator, partial curve]
CC(Sc1nnc(NC2CCCCC2)s1)C(=O)Nc1ccc2c(c1)C(=O)c1ccccc1C2=O (centres undefined)		inconclusive: 29.1 µM [inhibitor, single point]
COC(=O)CCN(C1CCCCC1)S(=O)(=O)c1ccc(S(=O)(=O)N2CCCCC2)cc1	inactive: -0.592%	

Another view of two compounds above.
Structure (SMILES) | activity change, negative = inhibition | Potency
COC(=O)/C(=C\c1ccc(O)cc1)c1nc2ccccc2[nH]1 |  | inconclusive: 18.3 µM [activator, partial curve]
CCCn1nc(C(=O)Nc2cccc(C(=O)OC)c2)c2ccccc2c1=O |  | active: 23.1 µM
